# Laboratory results as given in patent publication US11717508B2, “Compounds, compositions, and methods for inhibiting bacterial growth” (priority 2016, dated 2023).
# Several values for one entry are separate records, joined by “and”; a condition that tells them apart may be missing. Equal values may be shown once. Read-outs that look alike come from different tables or passages of the source. This continues a long series; more values of the same kind are listed elsewhere.
# System: CDC1551(ΔdosR) mutant
# Type: cell-based
# Conditions: for Counts per million (CPM): DosR mutant treated with HC101A, replicates 1, 2; for log2 Fold change: DosR mutant, HC101A vs DMSO
structure (smiles),measurement,setting,value
"C[C@@H]1CC[C@H]2[C@@H](C)C(=O)O[C@@H]3O[C@]4(C)CC[C@@H]1[C@]32OO4 [HC101A, artemisinin, reference compound]",Counts per million (CPM),gene MT0169 Rv0160c PE,26.44 CPM and 29.07 CPM
same,Counts per million (CPM),gene MT0258 Rv0244c fadE5,"759.9 CPM and 1,123.31 CPM"
same,Counts per million (CPM),gene MT0273 Rv0260c,15.8 CPM and 7.243 CPM
same,Counts per million (CPM),gene MT0468 Rv0452,461.5 CPM and 261.5 CPM
same,log2 Fold change,gene MT0468 Rv0452,1.384
same,Counts per million (CPM),gene MT0530 Rv0509 hemA,"1,704.93 CPM and 1,028.46 CPM"
same,log2 Fold change,gene MT0530 Rv0509 hemA,1.03
same,Counts per million (CPM),gene MT0531 Rv0510 hemC,794.5 CPM and 398.4 CPM
same,log2 Fold change,gene MT0531 Rv0510 hemC,1.247
same,Counts per million (CPM),gene MT0532 Rv0511 cysG,"1,631.80 CPM and 832.8 CPM"
same,Counts per million (CPM),gene MT0533 Rv0512 hemB,601.2 CPM and 365.7 CPM
same,Counts per million (CPM),gene MT0583 Rv0557,376.9 CPM and 224.6 CPM
same,Counts per million (CPM),gene MT0586 Rv0560c,106.2 CPM and 65.09 CPM
same,Counts per million (CPM),gene MT0658 Rv0630c recB,75.59 CPM and 34.26 CPM
same,Counts per million (CPM),gene MT0705 Rv0676c mmpL5,"3,503.44 CPM and 3,550.24 CPM"
same,Counts per million (CPM),gene MT0706 Rv0677c mmpS5,"1,184.86 CPM and 1,231.08 CPM"
same,Counts per million (CPM),gene MT0706.1 Rv0678,272.5 CPM and 202.4 CPM
same,Counts per million (CPM),gene MT0772.5 Rv0747 PE_PGRS,200 CPM and 58.24 CPM
same,Counts per million (CPM),gene MT0808 Rv0784,811.8 CPM and 173.4 CPM
same,Counts per million (CPM),gene MT0956 Rv0929 pstC2,370.5 CPM and 355.6 CPM
same,Counts per million (CPM),gene MT1073 Rv1043c,209.4 CPM and 170.4 CPM
same,Counts per million (CPM),gene MT1123 Rv1091 PE_PGRS,76.29 CPM and 18.21 CPM
same,Counts per million (CPM),gene MT1296 Rv1257c,517.1 CPM and 305 CPM
same,Counts per million (CPM),gene MT1297 Rv1258c,201.7 CPM and 152.3 CPM
same,Counts per million (CPM),gene MT1303 Rv1265,292.5 CPM and 237.3 CPM
same,Counts per million (CPM),gene MT1424 Rv1380 pyrB,370.4 CPM and 97 CPM
same,Counts per million (CPM),gene MT1425 Rv1381 pyrC,782.7 CPM and 262.4 CPM
same,Counts per million (CPM),gene MT1426,173.6 CPM and 47.38 CPM
same,Counts per million (CPM),gene MT1427 Rv1383 car A,572.9 CPM and 296.4 CPM
same,Counts per million (CPM),gene MT1428 Rv1384 carB,"1,369.37 CPM and 816.2 CPM"
same,Counts per million (CPM),gene MT1429 Rv1385 pyrF,137 CPM and 37.59 CPM
same,Counts per million (CPM),gene MT1620 Rv1569 bioF,87.71 CPM and 20.65 CPM
same,Counts per million (CPM),gene MT1836 Rv1787 PPE,284.7 CPM and 109.7 CPM
same,Counts per million (CPM),gene MT1893 Rv1845c,347.7 CPM and 58.83 CPM
same,Counts per million (CPM),gene MT2126 Rv2066 cobl,68.04 CPM and 27.11 CPM
same,Counts per million (CPM),gene MT2264 Rv2208 cobS,65.14 CPM and 14.1 CPM
same,Counts per million (CPM),gene MT2615 Rv2540c aroF,668.7 CPM and 48.55 CPM
same,Counts per million (CPM),gene MT2631,100.8 CPM and 15.96 CPM
same,Counts per million (CPM),gene MT2863 Rv2794c,147.5 CPM and 103.9 CPM
same,Counts per million (CPM),gene MT3110 Rv3026c,98.61 CPM and 28.29 CPM
same,Counts per million (CPM),gene MT3133 Rv3048c nrdG,232.6 CPM and 256.1 CPM
same,Counts per million (CPM),gene MT3134 Rv3049c,487.4 CPM and 585.1 CPM
same,Counts per million (CPM),gene MT3178 Rv3094c,44.69 CPM and 16.44 CPM
same,Counts per million (CPM),gene MT3293 Rv3199c,141.7 CPM and 118.6 CPM
same,Counts per million (CPM),gene MT3327 Rv3230c,"1,566.59 CPM and 1,092.38 CPM"
same,Counts per million (CPM),gene MT3441 Rv3338,119.8 CPM and 82.42 CPM
same,Counts per million (CPM),gene MT3481 Rv3371,86.74 CPM and 29.17 CPM
same,Counts per million (CPM),gene MT3492 Rv3384c,51.14 CPM and 8.907 CPM
same,log2 Fold change,gene MT3492 Rv3384c,1.051
same,Counts per million (CPM),gene MT3498 Rv3391 acrA1,73.2 CPM and 47.47 CPM
same,Counts per million (CPM),gene MT3539 Rv3433c,60.36 CPM and 7.341 CPM
same,log2 Fold change,gene MT3539 Rv3433c,1.232
same,Counts per million (CPM),gene MT3581 Rv3477 PE,30.05 CPM and 39.25 CPM
same,Counts per million (CPM),gene MT3591 Rv3487c lipF,22.96 CPM and 20.56 CPM
same,Counts per million (CPM),gene MT3696 Rv3590c PE_PGRS,89 CPM and 5.481 CPM
same,log2 Fold change,gene MT3696 Rv3590c PE_PGRS,1.338
same,Counts per million (CPM),gene MT3947 Rv3839,12.45 CPM and 10.47 CPM
same,Counts per million (CPM),gene MT3963 Rv3848,225.5 CPM and 354.9 CPM
same,Counts per million (CPM),gene MT3969 Rv3854c,246.5 CPM and 439.4 CPM
same,Counts per million (CPM),gene MT3970 Rv3855,59.46 CPM and 89.17 CPM
same,Counts per million (CPM),gene MT3976 Rv3862c,184.3 CPM and 55.7 CPM
same,Counts per million (CPM),gene MT3978 Rv3864,526.5 CPM and 634.4 CPM
same,Counts per million (CPM),gene MT3988 Rv3874,"1,214.01 CPM and 1,648.46 CPM"
same,Counts per million (CPM),gene MT3989 Rv3875 esat6,"1,889.51 CPM and 2,881.50 CPM"
